The record followed here is the supplement of paper PMC10373366.

The list shows a part of the results. Most values come without repeats; read them as rough.

One experiment relates to A2780. The experiment can be described thus: cell growth inhibition ratio vs untreated control (CCK8); higher = stronger inhibition of cell viability. To be noted: 10 µM; 48 h. As to the method: (§1)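 Natural product library (Topscience) screened at 10 µM final concentration for 48 h on ovarian cancer A2780 cells and patient-derived ovarian cancer cells (PDC) in 96-well plates; viability read by CCK8 and reported as inhibition ratio (%) relative to untreated control. Single-dose primary screen.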

Experiment [1] concerns patient-derived ovarian cancer cells (PDC). The experiment is described as above. The note with it: 10 µM; 48 h. As to the method: as §1

For `C=C(C)[C@H]1CC=C(C)CC1` [Cinene], the “cell growth inhibition ratio” value is 21.3% in the experiment with A2780 and -7.02% in experiment [1].

For the compound `CC1OC(OC2C(OC3CC4(C)C(CC(O)C5C(C6(C)CCC(C(C)(C)O)O6)CCC54C)C4(C)CCC(O)C(C)(C)C34)OC(CO)C(O)C2O)C(O)C(O)C1O` (centres undefined) [Pseudoginsenoside F11], the “cell growth inhibition ratio” value in the experiment with A2780 was 22.1%; in experiment [1], 4.95%.

In the case of `O=c1oc2c(O)c(O)cc3c(=O)oc4c(O)c(O)cc1c4c23` [Ellagic acid], the “cell growth inhibition ratio” value is 12.3% in the experiment with A2780 and -8.7% in experiment [1].

For the compound `C[C@]12C[C@H](O)[C@H]3[C@@H](CCC4=CC(=O)CC[C@@]43C)[C@@H]1CC[C@@H]2C(=O)CO` [Corticosterone], the “cell growth inhibition ratio” value is -1.68% in the experiment on A2780 and 0.986% in experiment [1].

As for `O[C@H]1[C@H]2c3cc4c(cc3CN3CCC(=C[C@@H]1O)[C@H]23)OCO4` [Lycorine chloride], the “cell growth inhibition ratio” value is 76.6% in the experiment on A2780 and 67% in experiment [1].

Turning to `O=c1cc(-c2ccc(O)c(O)c2)oc2cc(O)cc(O)c12` [Luteolin], the “cell growth inhibition ratio” value with A2780 is -2.41%; in experiment [1] it was -11.2%.

Turning to `C=C1C[C@@]23CC[C@H]4[C@@](C)(CCC[C@@]4(C)C(=O)O[C@@H]4O[C@H](CO)[C@@H](O)[C@H](O)[C@H]4O)[C@@H]2CC[C@]1(O[C@@H]1O[C@H](CO)[C@@H](O)[C@H](O[C@@H]2O[C@H](CO)[C@@H](O)[C@H](O)[C@H]2O)[C@H]1O[C@@H]1O[C@H](CO)[C@@H](O)[C@H](O)[C@H]1O)C3` [Rebaudioside A], the “cell growth inhibition ratio” value in the experiment on A2780 came out at 6.75%; in experiment [1], 5.34%.

As to `C[C@H](CCC(=O)O)[C@H]1CC[C@H]2[C@@H]3CC[C@@H]4C[C@H](O)CC[C@]4(C)[C@H]3C[C@H](O)[C@]12C` [Deoxycholic acid], the “cell growth inhibition ratio” value in the experiment with A2780 was 4.15%; in experiment [1] it was -2.09%.

Take `CC(C)(CO)C(O)C(=O)NCCCO` (centres undefined) [Panthenol]: the “cell growth inhibition ratio” value was 7.73% with A2780 and -14% in experiment [1].

`CCCCCCCCCCCCCCCCCCOCC(O)CO` (centres undefined) [Batyl alcohol]: the entries for the “cell growth inhibition ratio” value (with A2780; in experiment [1]) were 13.9% and 11.3%, respectively.

Turning to `O=C(O)CCCC[C@@H]1SC[C@@H]2NC(=O)N[C@@H]21` [D-Biotin], the figures for the “cell growth inhibition ratio” value (with A2780; in experiment [1]) were 0.786% and 13.5%, respectively.

Take `C[N+](C)(C)CC(O)CC(=O)[O-]` (racemic) [DL-Carnitine]: the “cell growth inhibition ratio” value in the experiment with A2780 was 3.36%; in experiment [1], -13.3%.

With `C[C@@H]1O[C@@H](O[C@@H]2[C@@H](O)[C@H](OCCc3ccc(O)c(O)c3)O[C@H](COC(=O)/C=C/c3ccc(O)c(O)c3)[C@H]2O)[C@H](O)[C@H](O)[C@H]1O` [Isoacteoside], the “cell growth inhibition ratio” value in the experiment with A2780 is 6%; in experiment [1] it was -8.64%.

On to `C/C=C1/[C@H](O[C@@H]2O[C@H](CO)[C@@H](O)[C@H](O)[C@H]2O)OC=C(C(=O)OC)[C@H]1CC(=O)OCCc1ccc(O)c(O)c1` [Oleuropein], for which the “cell growth inhibition ratio” value was 7.63% in the experiment with A2780 and -10% in experiment [1].

Take `COc1cc2ccc(=O)oc2cc1O[C@@H]1O[C@H](CO)[C@@H](O)[C@H](O)[C@H]1O` [scopolin]: the “cell growth inhibition ratio” value in the experiment with A2780 came out at 18%; in experiment [1], 4.22%.

In the case of `C=C1CCC[C@]2(C)C[C@]3(O)OC(=O)C(C)=C3C[C@@H]12` [Atractylenolide III], the “cell growth inhibition ratio” value in the experiment with A2780 was -0.761%; in experiment [1] it was -9.32%.

On to `CC(C)=CCc1c(O)ccc(C(=O)/C=C/c2ccc(O)cc2)c1O` [Isobacachalcone], for which the “cell growth inhibition ratio” value with A2780 is -13.8%; in experiment [1], 6.16%.

For `CCc1c2c(nc3ccc(OC(=O)N4CCC(N5CCCCC5)CC4)cc13)-c1cc3c(c(=O)n1C2)COC(=O)[C@]3(O)CC` [Irinotecan], the entries for the “cell growth inhibition ratio” value (in the experiment with A2780; in experiment [1]) were 7.14% and 14%, respectively.

On to `Nc1[nH]cnc2ncnc1-2` [Adenine], for which the “cell growth inhibition ratio” value is 2.29% in the experiment on A2780 and -2.94% in experiment [1].

In the case of `C[C@@H]1O[C@@H](O[C@@H]2[C@@H](O)[C@H](O)[C@@H](CO)O[C@H]2c2c(O)cc(O)c3c(=O)cc(-c4ccc(O)cc4)oc23)[C@H](O)[C@H](O)[C@H]1O` [Vitexin-2''-O-rhamnoside], the “cell growth inhibition ratio” value was -1.18% in the experiment with A2780 and 8.29% in experiment [1].

Turning to `CC(C)=C1C/C=C(\C)CC/C=C(\C)CC1=O` [Germacrone], the figures for the “cell growth inhibition ratio” value (in the experiment with A2780; in experiment [1]) were -1.61% and 5.44%, respectively.

For the compound `O=C(O)CCCCCCCC(=O)O` [Azelaic acid], the results for the “cell growth inhibition ratio” value (in the experiment with A2780; in experiment [1]) were 4.42% and 8.25%, respectively.

For the compound `OC1OC[C@@H](O)[C@@H](O)[C@@H]1O` (stereo partly drawn) [D(-)-Arabinose], the “cell growth inhibition ratio” value is 3.45% in the experiment with A2780 and 4.31% in experiment [1].

For the compound `C=CCc1cc(OC)c(OC)c(OC)c1` [Elemicin], the figures for the “cell growth inhibition ratio” value (in the experiment on A2780; in experiment [1]) were -0.371% and -0.564%, respectively.

Regarding `CCCCCCCCCC[C@H](C(=O)O)[C@]1(C(=O)O)CCC(=O)O1` [Spiculisporic Acid], the “cell growth inhibition ratio” value in the experiment on A2780 turned out to be 6.14%; in experiment [1] it was 5.93%.

For `OC[C@H]1O[C@H](O[C@H]2O[C@H](CO)[C@@H](O)[C@H](O)[C@H]2O)[C@H](O)[C@@H](O)[C@@H]1O` [D-(+)-Trehalose dihydrate], the “cell growth inhibition ratio” value in the experiment with A2780 was 9.26%; in experiment [1], 10.3%.

With `COc1cc(OC)c2ccc(=O)oc2c1` [Citropten], the “cell growth inhibition ratio” value is 10.9% in the experiment with A2780 and -15.6% in experiment [1].
